According to PubChem BioAssay AID493014 (National Center for Advancing Translational Sciences (NCATS), 2011):
Several values for one entry are separate records, joined by “and”; a condition that tells them apart may be missing. Equal values may be shown once. The list shows a part of the results. These are further read-outs of the screen, such as a control signal, another cell line or another target. No call is given for them. Compounds called inactive in the main read-out are mostly missing here. The note in brackets gives the kind of curve behind each potency; many fits are weak.

Experiment: qHTS Assay to Find Inhibitors of Chronic Active B-Cell Receptor Signaling
Settings: ABC-DLBCL IkBa-CBG/CBR reporter, luminescence ratio (green luciferase fused to IkBa over red control in TMD8 lymphoma cells), 4 h
How it was run: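 TMD8 ABC-DLBCL cells carrying doxycycline-inducible green luciferase fused to IkappaBalpha plus unfused red luciferase were exposed to compounds (up to 46 uM) for 4 hrs at 37C. Activity came from the overlap-corrected green/red luminescence ratio.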

[1] = measured here: CBR red luminescence, cell number
[2] = measured here: IkBa-CBG green luminescence

Row | Compound | AC50 [1] | AC50 [2]
1 | O=C(NCCc1ccc(Cl)cc1Cl)c1cccnc1 | 6.31 µM [rising, full curve, poor fit] | –
2 | CC12COC3(C(=O)NCCc4ccccc4)CC1CCC32C (stereo not given) | 25.9 µM [rising, single point] | –
3 | c1cc2c(cc1-c1[nH]ncc1CN1C[C@H]3CC[C@H]1C3)OCO2 | 1.78 µM [falling, partial curve, poor fit] | –
4 | COc1cccc(SCc2noc(C(=O)NC(C)C)c2C(=O)O)c1 | 22.4 µM [falling, single point] | –
5 | N#Cc1ccc2c(c1)C[C@]1(c3ccsc3)OC3=C(C(=O)OC4(CCCCC4)C3)C2O1 | 1.41 µM [falling, partial curve, poor fit] | –
6 | COc1ccc(/C=C/C(=O)c2cc3c(cc2N)OCO3)cc1 | 5.62 µM [falling, full curve, poor fit] | –
7 | COc1ccc(C(=O)CC(=O)C(=O)Nc2cc([N+](=O)[O-])ccc2OC)cc1 | 35.5 µM [rising, single point] | –
8 | Cc1ccc(CNCC(O)(c2ccc(F)cc2)c2ccc(F)cc2)cc1 | 11.2 µM [falling, single point] | –
9 | CCOc1ccccc1N1CCN(C(=S)NCc2ccc(Cl)cc2)CC1 | 22.4 µM [falling, single point] | –
10 | Cc1ccccc1N1CCN(C2CCCN(C(=O)c3cn4cccc(C)c4n3)C2)CC1 (stereo not given) | 22.4 µM [falling, single point] | –
11 | COc1ccc(NC(=S)N(CCC(C)C)C2CCN(C(C)C)CC2)cc1 | 14.1 µM [rising, single point] | –
12 | CNc1oc(-c2cccc3ccccc23)nc1C#N | 14.1 µM [rising, single point] | –
13 | CCn1cc(C(=O)NCCOC)c(=O)c2ccc(C)nc21 | 5.8 µM [falling, partial curve, poor fit] | –
14 | CCCCn1c(SCC(=O)NCc2ccco2)nnc1-c1ccco1 | 6.31 µM [rising, single point] | –
15 | Cc1ccccc1-c1cc(C(=O)NCc2cccc(Br)c2)n(CC2CC(c3cccnc3)=NO2)n1 (stereo not given) | 9.2 µM [falling, partial curve, poor fit] | –
16 | O=C(OCCN1CCCCC1)c1c[nH]c2ccccc12 | 13 µM [rising, partial curve, poor fit] | –
17 | N#CCC(=O)N/N=C\c1ccccc1OC/C=C/c1ccccc1 | 0.316 µM [rising, partial curve, poor fit] | –
18 | COc1ccc(N2CCN(C(=O)CN(c3ccc(OC)cc3)S(=O)(=O)c3ccccc3)CC2)cc1 | 3.16 µM [rising, partial curve] | –
19 | CCOC(=O)c1c(NC(=O)CCN2CCOCC2)sc2c1CC(C)(C)OC2 | 2.24 µM [rising, full curve] | –
20 | COc1ccc(OCC(=O)Nc2nc3ccccc3[nH]2)cc1 | 29.1 µM [falling, partial curve, poor fit] | –
21 | O=C(COC(=O)c1ccc(F)c(S(=O)(=O)N2CCOCC2)c1)NC1CC1 | 0.231 µM [rising, full curve, poor fit] | –

Row | Compound | AC50 [1] | AC50 [2]
22 | Cc1sc(NC(=O)CCCC(=O)O)c(C#N)c1C | 2.91 µM [rising, single point] | –
23 | O=S(=O)(Nc1cccc(Oc2ccc(Cl)cc2)n1)c1ccc(F)cc1 | 5.62 µM [falling, full curve, poor fit] | –
24 | COc1ccc(C2c3c(ncn(CCCN4CCOCC4)c3=N)Oc3ccc4ccccc4c32)cc1OC (stereo not given) | 11.2 µM [falling, partial curve, poor fit] | –
25 | COC(=O)c1[nH]c2ccc(Br)cc2c1NC(=O)CN1CCCCC1CCO (stereo not given) | 7.94 µM [rising, partial curve] | –
26 | c1cncc(CNc2ncnc3ccc(-c4cccnc4)cc23)c1 | 11.6 µM [rising, single point] and 23.1 µM [rising, single point] | 14.6 µM [falling, partial curve, poor fit]
27 | CCOC(=O)c1[nH]c2cc(OC)c(OC)cc2c1NC(=O)c1nonc1C | 0.708 µM [falling, full curve, poor fit] | –
28 | c1ccc(-n2nnnc2NC2CCCCCC2)cc1 | 0.0651 µM [falling, full curve, poor fit] | –
29 | O=C(Nc1ccc2nc3n(c(=O)c2c1)CCCCC3)c1c(F)ccc([N+](=O)[O-])c1F | 3.16 µM [falling, full curve] | –
30 | O=c1c2cc(Cl)ccc2[nH]c(=S)n1Cc1ccco1 | 0.731 µM [falling, full curve, poor fit] | –
31 | COc1ccc(S(=O)(=O)Nc2ccc(O)c3ccccc23)cc1 | 25.9 µM [falling, partial curve] | –
32 | O=C(COc1ccc(F)cc1Cl)NC1CCCCCC1 | 29.1 µM [rising, single point] | –
33 | Cn1c(O)c(C=Nc2ccc(Br)cc2)sc1=O | 0.631 µM [rising, full curve] | –
34 | COc1ccc2nc(NC(=O)c3cccs3)sc2c1 | 0.562 µM [falling, full curve] | –
35 | COCCCNC(=O)Cn1c(=O)n(Cc2ccc(F)cc2)c(=O)c2sccc21 | 3.16 µM [rising, partial curve, poor fit] | –
36 | Cc1nn(C)c(=O)c(N)c1-c1cc(-c2ccc(Cl)c(Cl)c2)n[nH]1 | 20 µM [rising, partial curve, poor fit] | –
37 | O=C(Cn1cnc([N+](=O)[O-])n1)NCCc1ccccc1 | 6.31 µM [rising, single point] | –
38 | Cc1ccc(NCc2ccccc2)cc1 | 35.5 µM [rising, single point] | –
39 | Oc1cc(-c2cccnc2)cc2cccnc12 | 580 nM [rising, full curve, poor fit] and 2.06 µM [falling, partial curve, poor fit] | 1.46 µM [falling, partial curve, poor fit]
40 | O=[N+]([O-])c1ccc(N2CCCCC2)cc1 | 1 µM [rising, full curve, poor fit] | –
41 | COc1cccc(NC(=O)CSC2=Nc3ccccc3C3=NC(CC(=O)NCc4ccc5c(c4)OCO5)C(=O)N23)c1 (stereo not given) | 25.1 µM [falling, single point] | –
42 | CC(=O)OC1COC(OC2C(O)C(C)OC(OC3C(OC4CCC5(C)C(CCC6(C)C5CC=C5C7CC(C)(C)CCC7(C(=O)O)CCC56C)C4(C)CO)OCC(O)C3O)C2O)C(O)C1OC(C)=O (stereo not given) | 14.1 µM [falling, partial curve, poor fit] | 25.1 µM [rising, partial curve, poor fit]

One compound at a time (already shown):
`c1cncc(CNc2ncnc3ccc(-c4cccnc4)cc23)c1` as listed: AC50 [1]: 11.6 µM [rising, single point] and 23.1 µM [rising, single point]; AC50 [2]: 14.6 µM [falling, partial curve, poor fit]
`COc1ccc(C2c3c(ncn(CCCN4CCOCC4)c3=N)Oc3ccc4ccccc4c32)cc1OC` (stereo not given) as listed: AC50 [1]: 11.2 µM [falling, partial curve, poor fit]
`COC(=O)c1[nH]c2ccc(Br)cc2c1NC(=O)CN1CCCCC1CCO` (stereo not given) as listed: AC50 [1]: 7.94 µM [rising, partial curve]

Additional records

Row | Compound | AC50 [1] | AC50 [2]
43 | Cc1ccc(-n2nnnc2SCC(=O)N2CCCCC2)cc1 | 13 µM [rising, partial curve, poor fit] | –
44 | CCCn1cnc2cc(NCc3ccccc3O)ccc21 | 20 µM [falling, single point] | –
45 | O=C(CN1C(=O)/C(=C\c2cccc(Cl)c2)Oc2ccccc21)N1CCN(c2ccccn2)CC1 | 4.47 µM [rising, full curve] | –
46 | Cc1ccc(OC(=O)COc2ccccc2C)c(-n2nc3ccccc3n2)c1 | 3.66 µM [rising, full curve, poor fit] | –
47 | CN1CCC(NC(=O)Nc2cccc(C(F)(F)F)c2)CC1 | 1.58 µM [falling, partial curve, poor fit] | –
48 | COc1cccc(OCc2cc(C(=O)N(Cc3ccccc3)CC3CC3)no2)c1 | 11.2 µM [falling, single point] | –
49 | O=C(Nc1ccccc1-c1ccccc1)C(=O)Nc1ccccc1-c1ccccc1 | 6.31 µM [rising, single point] | –
50 | FC(F)(F)c1nc2cc3nc4ccccc4[nH]c3cc2n1 | 12.6 µM [falling, partial curve, poor fit] | 3.55 µM [rising, partial curve, poor fit]
51 | CC1CN(c2nc3ccccc3nc2SCC(=O)Nc2ccc(F)cc2)CC(C)O1 (stereo not given) | 0.112 µM [falling, full curve, poor fit] | –
52 | NS(=O)(=O)c1ccc(NC(=O)COC(=O)c2cc3ccccc3oc2=O)cc1 | 7.94 µM [rising, partial curve, poor fit] | –
53 | CC(=O)N/C(=C/c1ccccc1)C(=O)NC(Cc1ccccc1)C(=O)O (stereo not given) | 6.51 µM [rising, single point] | –
54 | O=C(NCc1cccnc1)/C(=C/c1ccc(-c2ccc(Cl)cc2)o1)S(=O)(=O)c1ccccc1 | 3.98 µM [falling, partial curve, poor fit] | –
55 | O=C1NC2=C(C(=O)c3ccccc32)C(c2ccccc2)N1 (stereo not given) | 7.94 µM [falling, partial curve, poor fit] | –
56 | Cc1c(-c2cccc(NC(=O)c3cccs3)c2)nc2ncccn12 | 0.259 µM [falling, full curve, poor fit] | –
57 | CCC1CCCCN1CCCNC(=O)C(C)n1nc(C)c2sc3ccccc3c2c1=O (stereo not given) | 35.5 µM [falling, single point] | –
58 | C=CC[n+]1c(-c2ccc(Cl)cc2Cl)csc1Nc1ccc(NC(C)=O)cc1 | 5.01 µM [rising, single point] | –
59 | CCCC(=O)Nc1cccc(NC(=S)NC(=O)C(C)Oc2ccc(Cl)cc2Cl)c1 (stereo not given) | 1.46 µM [rising, partial curve, poor fit] | –
60 | Nc1ccc(C(=O)Nc2ccccc2C(=O)O)cc1 | 5.8 µM [falling, partial curve] | –
61 | CO/N=C(/CNC(=O)c1ccccc1Cl)c1ccc(Cl)cc1 | 1.41 µM [falling, full curve] | –
